“Also recorded” adds a separate entry of the source.
Tests used:
Assay type in all cases: in vivo
[1] = test system: 129S6/SvEvTac mice; experiment: Fighting behavior during SD bouts
Procedure: Adult aggressor CD-1 male mice were single-housed in Macrolon® polycarbonate resin cages (15.25 in×7.8 in×9.5 in) (Animal Care Systems, Inc., Centennial, Colo.). Male 129S6/SvEvTac mice (9 weeks of age) were subsequently placed into the resident. CD-1 mouse's cage. Three antagonistic encounters were allowed between the CD-1 mouse and the intruder. Each of these encounters typically lasted less than 5 min. Following the encounters, mice were separated by a polished stainless steel cage divider (Animal Care Systems, Inc., Centennial, Colo., P/N C79171), which allowed for olfactory and auditory communication, but limited visual or tactile contact. The partition was removed daily for 2 weeks and 3 antagonistic encounters were allowed between the mice each day. This procedure consistently yielded a submissive phenotype in the experimental intruder mice. Control (Ctrl) mice were group housed 4 to 5 per cage in Macrolon® polycarbonate resin cages without dividers.

[2] = test system: 129S6/SvEvTac mice; experiment: Learned helplessness (LH) shock escape; conditions: ketamine 30 mg kg^−1 1 week before LH training; vs saline
Procedure: Experiment 4 (Pre-ketamine in learned helplessness (LH)); At 8 weeks of age, a single injection of saline or ketamine (30 mg kg^−1) was administered. One week following this injection, LH training (inescapable shock) was administered. Two weeks later, mice were administered LH testing (shock escape).
The LH paradigm was used to induce depressive-like behavior (A4). In this paradigm, mice are exposed to unpredictable and uncontrollable stress (shocks) and then develop coping deficits to deal with the inescapable shocks. We modified a previously published paradigm (A5). Briefly, the procedure was conducted in a two-chamber shuttle box (model ENV 010MD; Med Associates, St. Albans, Vt.) located within a sound-attenuated cubicle. The grid floor was made of stainless steel and connected to a shock generator. The scrambled shock generator (model ENV 414S, Med Associates) created varying electrical potential differences between bars preventing an animal from avoiding shock.
Inescapable shock (training): At approximately 9 weeks of age, mice were trained in the LH paradigm. For each shuttle box, 2 animals were administered the protocol at the same time: the central door was closed, with one animal in the chamber on each side. After a 3 min habituation period, the shock deliveries began. […]

[3] = test system: C57BL/6NTac mice; experiment: NSF in CORT model; conditions: ketamine 90 mg kg^−1 before CORT
Procedure: Experiment 5 (Pre-ketamine and pre-fluoxetine corticosterone (CORT)): C57BL16NTac mice were injected with ketamine (10, 30, 90 mg kg^−1, i.p.) 1 week before the start of CORT, or administered fluoxetine (18 mg kg^−1 per day) in the drinking water for 3 weeks before the start of CORT. Ketamine was purchased from Merial (100 mg/ml stock solution). Fluoxetine hydrochloride (160 μg/mL, equivalent to 18 mg kg^−1 per day in the drinking water) was purchased from Anawa Trading (Zurich, Switzerland) and dissolved in 0.45% hydroxypropyl-β-cyclodextrin (β-CD) (Sigma-Aldrich, Saint-Quentin Fallavier, France) solution. Following ketamine or fluoxetine treatment, CORT was administered for 3 weeks in the drinking water. CORT (4-pregnen-11b-DIOL-3 20-DIONE 21-hemisuccinate) (35 μg/ml) from. Sigma Aldrich (Saint-Quentin Fallavier, France) was dissolved in vehicle (0.45% β-CD). Control animals received vehicle (0.45% β-CD) throughout the duration of the experiment. […]
Testing was performed as previously described (A13). […] The latency of the mice to begin eating was recorded. Immediately after the latency was recorded, the food pellet was removed from the arena. The mice were then placed into a cage and the amount of food consumed in 5 min was measured (home cage consumption), followed by an assessment of post-restriction weight. […]

[4] = test system: 129S6/SvEvTac mice; experiment: 3-shock CFC, extinction and reinstatement paradigm
Procedure: A single injection of saline (0.9% NaCl) far ketamine (30 mg kg^−1) (Ketaset III, Ketamine HCl injection, Fort Dodge Animal Health, Forth Dodge, Iowa) was administered once during the course of each experiment.
A 3-shock CFC paradigm was administered as previously described (Drew et al., 2010; Denny et al., 2014). Mice were placed in the conditioning chamber and received 3 shocks 180, 240, and 300 s later (2 s, 0.75 mA) and were removed 15 s following the last shock. All sessions were scored for freezing using FreezeView2http://actimetrics.com/downloads/freezeframe/).
Extinction began 4 days after the initial 3-shock CFC procedure, or 4 days after the reinstatement procedure. Each group of mice was subjected to 2 extinction trials per day. Each extinction trial lasted 30 min, with an intertrial interval of at least 2 h. For each extinction trial, mice were placed in the same box used for CFC without receiving foot shocks. All trials were scored for freezing. The freezing presented throughout the text represents averaged freezing behavior for the first 3 min of each extinction trial.
Reinstatement took place in the same Coulbourn fear conditioning box, but with altered cues. A 1-shock CFC paradigm was administered as previously described (Drew et al., 2010; Denny et al., 2012; Denny et al., 2014), with the exception of two experiments in which the mice were administered 3 shocks.

[5] = test system: 129S6/SvEvTac mice; experiment: Open field (OF) after reinstatement
Procedure: OF protocol was administered as previously described (Richardson-Jones et al., 2010).

SMILES: CNC1(c2ccccc2Cl)CCCCC1=O (racemic) [ketamine, (RS)-2-(2-chlorophenyl)-2-(methylamino)cyclohexanone]
- number of approaches to the CD-1 ([1]; SD bouts, ketamine vs saline): did not differ between the groups
- percent of time vocalizing ([1]; SD bouts, ketamine vs saline): did not differ between the groups
- total fighting bout length ([1]; ketamine before SD, week 1 or week 2): did not differ between groups
- activity in the habituation phase during LH testing [2]: did not differ between groups
- home cage food consumption in NSF [3]: increased home cage food consumption
- shock response (distance traveled) ([4]; ketamine 1 month before CFC): did not alter the shock response; also recorded: traveled comparably
- path length during the shocks ([4]; ketamine 24 h before CFC): did not alter; also recorded: traveled equally during the shock presentation
- locomotion in the OF ([5]; ketamine 1 week prior to 1-shock reinstatement): comparable locomotion during the OF; also recorded: equal levels of movement in the OF
- basic movements in the OF ([5]; ketamine 1 week prior to 3-shock reinstatement): similar; also recorded: equal levels of movement in the OF

Reference: patent publication US11110070B2 (priority 2015, dated 2021)
